In patent publication US20030119742A1, “Methods and compositions to treat cardiovascular disease using 139, 258, 1261, 1486, 2398, 2414, 7660, 8587,10183, 10550, 12680, 17921, 32248, 60489 or 93804” (Millennium Pharmaceuticals, Inc., priority 2001, published 2003):
At least one structure is not confirmed: it was looked up by name or label, or the drawing left a doubt.

Experiments:
[1] = test system: 139 mRNA; test: TaqMan analysis of 139 mRNA in cerivastatin-treated marmosets; type: in vivo, marmoset; details: compared to a placebo
[2] = test system: 7660 mRNA; test: TaqMan analysis of 7660 mRNA in liver of treated marmosets; type: in vivo; details: marmoset liver

## COCc1c(C(C)C)nc(C(C)C)c(/C=C/[C@@H](O)C[C@@H](O)CC(=O)O)c1-c1ccc(F)cc1 [cerivastatin]
[1]
  expression of 139 mRNA: reduced
[2]
  7660 mRNA: reduced
